Measurements: article PMC5100903 (PLoS ONE, 2016)
Strings that start with PEPTIDE1 are HELM notation: dots part the residues, brackets hold end groups and non-standard residues. Positions of bridges follow the written chain, without caps; N, C: chain ends.

Experiment: general procedure: Fmoc solid-phase peptide synthesis; pre-loaded Fmoc-Cys(Trt)-NovaSyn TGT resin; HBTU/HOBt, DIPEA
Details: cyclisation step
[1] = isolated yield from linear precursor

PEPTIDE1{G.R.C.T.K.S.I.P.P.H.C.Y.P.D}$PEPTIDE1,PEPTIDE1,1:R1-14:R2|PEPTIDE1,PEPTIDE1,3:R3-11:R3$$$V2.0
cyclisation yield [1]: 19%

PEPTIDE1{G.R.C.T.K.S.K.P.P.H.C.F.P.D}$PEPTIDE1,PEPTIDE1,1:R1-14:R2|PEPTIDE1,PEPTIDE1,3:R3-11:R3$$$V2.0
cyclisation yield [1]: 16%

PEPTIDE1{N.R.C.T.K.S.I.P.P.H.C.F.P.D}$PEPTIDE1,PEPTIDE1,1:R1-14:R2|PEPTIDE1,PEPTIDE1,3:R3-11:R3$$$V2.0
cyclisation yield [1]: 25%

cyclo(CFPDGRCTKSIPPH) (disulfide 1-7)
cyclisation yield [1]: 19%

cyclo(CFPDGRCTRSIPPH) (disulfide 1-7)
cyclisation yield [1]: 24%

cyclo(CTKSIPPHCWPDGR) (disulfide 1-9)
cyclisation yield [1]: 25%

cyclo(CTRSIPPHCWPDGR) (disulfide 1-9)
cyclisation yield (from linear peptide): 24%
